In the supplement of paper PMC10849652:
Some of the results follow.

Sequences of proteins named here, by UniProt entry; tags and fusion partners are left off. A change or cut given only in a name is not applied to a line headed by its entry.
UniProt Q8WU76: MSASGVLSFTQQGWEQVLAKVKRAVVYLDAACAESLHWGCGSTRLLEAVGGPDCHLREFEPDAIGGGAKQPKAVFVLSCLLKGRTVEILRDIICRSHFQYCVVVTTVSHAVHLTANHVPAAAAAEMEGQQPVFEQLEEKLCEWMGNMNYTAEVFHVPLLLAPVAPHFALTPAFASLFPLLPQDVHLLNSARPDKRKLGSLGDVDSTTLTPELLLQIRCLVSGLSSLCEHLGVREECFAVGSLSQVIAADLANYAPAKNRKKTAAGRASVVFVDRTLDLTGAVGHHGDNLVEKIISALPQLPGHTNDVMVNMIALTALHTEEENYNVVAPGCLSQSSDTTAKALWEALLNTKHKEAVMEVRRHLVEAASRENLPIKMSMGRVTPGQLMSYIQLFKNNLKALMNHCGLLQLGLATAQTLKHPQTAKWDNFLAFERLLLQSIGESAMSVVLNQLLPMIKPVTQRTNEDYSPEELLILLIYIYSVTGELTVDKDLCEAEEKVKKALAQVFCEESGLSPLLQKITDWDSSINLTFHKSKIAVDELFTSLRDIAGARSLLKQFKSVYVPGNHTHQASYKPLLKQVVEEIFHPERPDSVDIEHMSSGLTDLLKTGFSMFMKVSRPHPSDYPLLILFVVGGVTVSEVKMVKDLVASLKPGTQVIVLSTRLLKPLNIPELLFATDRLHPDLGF
UniProt Q9HD40: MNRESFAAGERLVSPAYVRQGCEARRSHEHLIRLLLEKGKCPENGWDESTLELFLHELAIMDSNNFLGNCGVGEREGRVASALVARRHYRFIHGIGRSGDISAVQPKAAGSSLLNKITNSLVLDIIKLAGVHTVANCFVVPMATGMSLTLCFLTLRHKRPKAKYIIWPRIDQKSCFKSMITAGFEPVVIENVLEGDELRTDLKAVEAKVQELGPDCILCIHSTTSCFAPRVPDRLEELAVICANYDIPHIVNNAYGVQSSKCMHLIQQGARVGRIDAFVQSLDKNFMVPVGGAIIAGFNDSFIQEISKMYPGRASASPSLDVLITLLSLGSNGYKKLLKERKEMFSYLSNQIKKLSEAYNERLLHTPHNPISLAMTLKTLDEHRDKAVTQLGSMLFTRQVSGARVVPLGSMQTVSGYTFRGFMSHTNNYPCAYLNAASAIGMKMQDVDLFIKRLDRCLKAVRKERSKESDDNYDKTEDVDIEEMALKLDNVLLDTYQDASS
UniProt Q969E2: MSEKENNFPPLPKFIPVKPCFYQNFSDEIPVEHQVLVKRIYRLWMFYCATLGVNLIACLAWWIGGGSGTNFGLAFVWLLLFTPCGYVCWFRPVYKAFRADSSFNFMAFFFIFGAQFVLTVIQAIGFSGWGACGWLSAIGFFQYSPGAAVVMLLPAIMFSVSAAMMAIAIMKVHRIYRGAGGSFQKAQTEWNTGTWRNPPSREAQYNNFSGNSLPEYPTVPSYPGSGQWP
UniProt Q14108: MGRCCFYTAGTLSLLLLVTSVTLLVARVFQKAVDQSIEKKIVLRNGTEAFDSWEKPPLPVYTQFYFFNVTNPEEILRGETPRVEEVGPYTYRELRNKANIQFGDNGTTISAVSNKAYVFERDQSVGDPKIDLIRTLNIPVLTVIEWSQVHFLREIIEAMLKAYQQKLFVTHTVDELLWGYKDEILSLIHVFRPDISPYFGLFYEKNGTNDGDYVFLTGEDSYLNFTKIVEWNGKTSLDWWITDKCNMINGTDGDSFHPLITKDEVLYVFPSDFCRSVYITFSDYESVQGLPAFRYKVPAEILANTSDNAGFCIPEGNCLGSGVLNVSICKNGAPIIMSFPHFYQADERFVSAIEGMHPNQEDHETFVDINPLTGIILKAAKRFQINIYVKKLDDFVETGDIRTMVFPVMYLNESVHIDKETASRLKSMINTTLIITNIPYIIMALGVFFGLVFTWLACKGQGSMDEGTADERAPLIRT
UniProt P55735: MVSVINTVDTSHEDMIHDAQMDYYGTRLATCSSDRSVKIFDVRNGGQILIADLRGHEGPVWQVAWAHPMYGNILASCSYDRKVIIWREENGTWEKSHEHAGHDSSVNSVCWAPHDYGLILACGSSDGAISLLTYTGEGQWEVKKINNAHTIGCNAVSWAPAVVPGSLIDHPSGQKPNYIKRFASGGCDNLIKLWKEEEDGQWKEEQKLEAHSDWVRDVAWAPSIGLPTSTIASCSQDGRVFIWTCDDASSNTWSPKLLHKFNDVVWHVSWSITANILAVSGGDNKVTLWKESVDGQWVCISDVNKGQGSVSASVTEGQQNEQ
UniProt P60059: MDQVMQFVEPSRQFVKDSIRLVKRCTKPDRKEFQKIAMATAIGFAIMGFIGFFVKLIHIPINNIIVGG
UniProt Q9H7N4: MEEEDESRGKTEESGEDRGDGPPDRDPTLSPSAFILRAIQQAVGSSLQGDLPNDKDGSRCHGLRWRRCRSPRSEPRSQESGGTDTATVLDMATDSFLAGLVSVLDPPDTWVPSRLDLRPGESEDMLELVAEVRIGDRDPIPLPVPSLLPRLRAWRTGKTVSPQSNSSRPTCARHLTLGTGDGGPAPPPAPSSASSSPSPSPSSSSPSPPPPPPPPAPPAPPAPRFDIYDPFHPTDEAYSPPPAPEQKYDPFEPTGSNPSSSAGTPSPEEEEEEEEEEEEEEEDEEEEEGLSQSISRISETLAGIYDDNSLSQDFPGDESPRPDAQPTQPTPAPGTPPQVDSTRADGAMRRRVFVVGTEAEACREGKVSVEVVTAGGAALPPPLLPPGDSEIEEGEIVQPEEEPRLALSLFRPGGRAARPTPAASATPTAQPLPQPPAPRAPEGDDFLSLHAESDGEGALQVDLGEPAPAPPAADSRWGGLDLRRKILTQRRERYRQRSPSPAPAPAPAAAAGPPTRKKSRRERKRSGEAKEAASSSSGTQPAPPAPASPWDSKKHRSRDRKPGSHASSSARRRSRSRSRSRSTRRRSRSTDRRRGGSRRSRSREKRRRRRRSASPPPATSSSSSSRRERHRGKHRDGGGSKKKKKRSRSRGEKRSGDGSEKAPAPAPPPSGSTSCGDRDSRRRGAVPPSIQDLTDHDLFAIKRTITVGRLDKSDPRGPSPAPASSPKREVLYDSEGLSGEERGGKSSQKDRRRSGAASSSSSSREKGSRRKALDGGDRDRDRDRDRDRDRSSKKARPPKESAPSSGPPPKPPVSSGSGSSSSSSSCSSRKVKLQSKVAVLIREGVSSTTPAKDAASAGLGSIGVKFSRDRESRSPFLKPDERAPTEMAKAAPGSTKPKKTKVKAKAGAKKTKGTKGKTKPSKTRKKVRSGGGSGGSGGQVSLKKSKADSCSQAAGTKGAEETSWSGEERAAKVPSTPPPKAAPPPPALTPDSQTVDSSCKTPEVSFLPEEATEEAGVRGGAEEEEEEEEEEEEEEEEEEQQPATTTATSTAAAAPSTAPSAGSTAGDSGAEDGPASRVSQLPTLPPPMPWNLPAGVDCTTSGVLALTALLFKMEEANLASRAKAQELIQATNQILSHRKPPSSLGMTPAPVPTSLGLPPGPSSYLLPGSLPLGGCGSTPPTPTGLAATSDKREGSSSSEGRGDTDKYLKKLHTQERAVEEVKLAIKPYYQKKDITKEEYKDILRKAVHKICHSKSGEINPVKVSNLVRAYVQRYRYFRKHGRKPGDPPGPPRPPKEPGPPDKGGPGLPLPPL
UniProt O43290: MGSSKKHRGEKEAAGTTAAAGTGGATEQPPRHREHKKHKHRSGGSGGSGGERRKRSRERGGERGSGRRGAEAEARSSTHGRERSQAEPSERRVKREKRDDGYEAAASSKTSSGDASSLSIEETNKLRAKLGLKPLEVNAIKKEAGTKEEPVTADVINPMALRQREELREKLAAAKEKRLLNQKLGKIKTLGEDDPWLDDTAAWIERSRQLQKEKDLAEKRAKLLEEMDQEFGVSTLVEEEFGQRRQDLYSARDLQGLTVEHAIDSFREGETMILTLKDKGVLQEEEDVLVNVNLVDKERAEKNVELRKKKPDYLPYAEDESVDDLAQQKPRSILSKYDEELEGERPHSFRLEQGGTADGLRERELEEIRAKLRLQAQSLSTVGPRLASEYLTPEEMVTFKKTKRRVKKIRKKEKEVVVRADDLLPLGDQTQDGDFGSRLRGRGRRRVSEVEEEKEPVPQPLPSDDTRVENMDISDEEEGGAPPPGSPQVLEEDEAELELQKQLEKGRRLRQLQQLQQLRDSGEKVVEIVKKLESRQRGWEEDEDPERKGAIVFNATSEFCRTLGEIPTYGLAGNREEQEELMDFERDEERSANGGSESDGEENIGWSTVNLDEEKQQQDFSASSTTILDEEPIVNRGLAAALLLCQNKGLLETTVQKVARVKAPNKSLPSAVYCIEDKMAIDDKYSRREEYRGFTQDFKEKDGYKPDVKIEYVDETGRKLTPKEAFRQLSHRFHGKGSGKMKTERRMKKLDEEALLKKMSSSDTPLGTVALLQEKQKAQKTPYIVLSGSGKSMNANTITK
UniProt Q9H9S3, whole entry, looked up: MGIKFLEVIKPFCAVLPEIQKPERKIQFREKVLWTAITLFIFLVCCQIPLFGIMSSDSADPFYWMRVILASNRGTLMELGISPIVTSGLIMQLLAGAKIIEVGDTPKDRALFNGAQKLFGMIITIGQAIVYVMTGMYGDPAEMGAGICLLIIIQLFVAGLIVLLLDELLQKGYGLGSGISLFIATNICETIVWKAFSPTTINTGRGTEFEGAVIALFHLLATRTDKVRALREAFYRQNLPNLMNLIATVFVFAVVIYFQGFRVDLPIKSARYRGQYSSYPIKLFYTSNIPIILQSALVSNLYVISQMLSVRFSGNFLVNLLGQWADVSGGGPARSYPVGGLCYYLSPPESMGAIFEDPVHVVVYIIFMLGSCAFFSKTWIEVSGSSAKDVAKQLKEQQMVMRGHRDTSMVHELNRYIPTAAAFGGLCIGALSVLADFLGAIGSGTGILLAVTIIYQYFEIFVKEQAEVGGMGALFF
UniProt Q8IZQ5, whole entry, looked up: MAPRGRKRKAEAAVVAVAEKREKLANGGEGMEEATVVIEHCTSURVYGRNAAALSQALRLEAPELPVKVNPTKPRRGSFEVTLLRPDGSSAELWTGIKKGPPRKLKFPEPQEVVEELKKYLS
UniProt Q96NL6: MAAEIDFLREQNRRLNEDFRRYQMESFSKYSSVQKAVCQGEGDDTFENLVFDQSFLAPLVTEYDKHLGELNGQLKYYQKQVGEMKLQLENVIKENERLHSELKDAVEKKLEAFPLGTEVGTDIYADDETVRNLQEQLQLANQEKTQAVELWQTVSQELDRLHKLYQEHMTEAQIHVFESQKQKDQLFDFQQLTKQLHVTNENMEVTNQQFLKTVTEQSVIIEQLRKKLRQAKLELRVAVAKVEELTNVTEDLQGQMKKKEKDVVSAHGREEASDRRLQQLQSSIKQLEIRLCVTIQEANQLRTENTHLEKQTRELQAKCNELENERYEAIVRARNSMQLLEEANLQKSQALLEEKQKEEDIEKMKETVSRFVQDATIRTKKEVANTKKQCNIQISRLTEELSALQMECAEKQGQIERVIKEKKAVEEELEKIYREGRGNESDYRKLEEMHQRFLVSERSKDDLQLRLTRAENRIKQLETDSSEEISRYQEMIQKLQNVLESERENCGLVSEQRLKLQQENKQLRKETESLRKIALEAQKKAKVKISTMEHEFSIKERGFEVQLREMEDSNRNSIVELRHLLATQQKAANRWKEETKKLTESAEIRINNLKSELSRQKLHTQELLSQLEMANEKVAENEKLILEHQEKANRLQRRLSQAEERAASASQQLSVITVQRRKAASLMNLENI
UniProt Q8WTV0: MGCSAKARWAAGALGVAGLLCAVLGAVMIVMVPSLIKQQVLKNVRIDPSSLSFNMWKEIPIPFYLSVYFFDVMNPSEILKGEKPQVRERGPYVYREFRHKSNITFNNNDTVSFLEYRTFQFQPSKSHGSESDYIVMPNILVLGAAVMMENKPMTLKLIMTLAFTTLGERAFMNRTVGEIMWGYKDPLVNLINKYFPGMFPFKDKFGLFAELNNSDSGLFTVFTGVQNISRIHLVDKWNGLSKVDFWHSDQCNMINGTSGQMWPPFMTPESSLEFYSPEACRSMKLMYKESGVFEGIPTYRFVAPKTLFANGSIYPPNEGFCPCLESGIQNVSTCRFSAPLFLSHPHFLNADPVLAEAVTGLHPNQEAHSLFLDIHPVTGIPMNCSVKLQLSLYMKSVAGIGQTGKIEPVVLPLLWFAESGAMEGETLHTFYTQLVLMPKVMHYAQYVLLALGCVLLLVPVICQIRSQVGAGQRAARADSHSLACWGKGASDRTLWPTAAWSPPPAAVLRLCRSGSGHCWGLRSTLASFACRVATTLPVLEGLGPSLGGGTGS
UniProt O14828: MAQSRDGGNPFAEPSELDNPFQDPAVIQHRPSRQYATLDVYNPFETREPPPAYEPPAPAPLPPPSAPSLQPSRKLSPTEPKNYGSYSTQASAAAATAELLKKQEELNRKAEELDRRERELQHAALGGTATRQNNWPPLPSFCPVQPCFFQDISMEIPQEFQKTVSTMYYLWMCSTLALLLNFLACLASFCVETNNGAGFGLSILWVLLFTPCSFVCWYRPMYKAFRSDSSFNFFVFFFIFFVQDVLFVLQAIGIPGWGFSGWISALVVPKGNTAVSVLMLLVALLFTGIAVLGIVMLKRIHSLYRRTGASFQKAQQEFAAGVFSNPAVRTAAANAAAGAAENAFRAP

Tests used:
Assay in all cases: log2 fold change, soluble protein after heating vs DMSO (PISA); higher = thermal stabilisation; K562 lysate, 10 uM; active = over 0.2 and 3.5 SD of the protein, either way, in both replicates (recomputed)
nilotinib = compound: Cc1cn(-c2cc(NC(=O)c3ccc(C)c(Nc4nccc(-c5cccnc5)n4)c3)cc(C(F)(F)F)c2)cn1 [nilotinib]
How it was run: (§1)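 Thermal stability, expressed as log-two fold change relative to solvent controls, is given from duplicates. Crude K562 extract in PBS pH 7.4 with 1 mM MgCl2, at 1 mg/mL protein, was treated with 10 μM compound for 30 min and heated in aliquots for 3 min across 48°C-58°C. After pooling, adjustment to 0.5% NP-40 at 4°C and centrifugation at 21,000xg for 90 min, supernatant protein was measured by TMTpro 16plex LC-MS/MS with channel sums equalised.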

[1] = compound: Cc1nc(Nc2n[nH]c3c2CN(C(=O)N[C@H](CN(C)C)c2ccccc2)C3(C)C)c2sccc2n1
How it was run: as §1

dasatinib = compound: Cc1nc(Nc2ncc(C(=O)Nc3c(C)cccc3Cl)s2)cc(N2CCN(CCO)CC2)n1 [dasatinib]
How it was run: as §1

[2] = compound: Cc1ncc(-c2ccnc(Nc3ccc(S(C)(=O)=O)cc3)n2)n1C(C)C
How it was run: as §1

[3] = compound: Cn1cc(-c2ccc3c(c2)CCN3C(=O)Cc2cccc(C(F)(F)F)c2)c2c(N)ncnc21
How it was run: as §1

quisinostat = compound: Cn1cc(CNCC2CCN(c3ncc(C(=O)NO)cn3)CC2)c2ccccc21 [quisinostat]
How it was run: as §1

tipifarnib = compound: Cn1cncc1[C@@](N)(c1ccc(Cl)cc1)c1ccc2c(c1)c(-c1cccc(Cl)c1)cc(=O)n2C [tipifarnib]
How it was run: as §1

[4] = compound: NC(=O)Nc1cc(-c2cccc(F)c2)sc1C(=O)N[C@H]1CCCNC1
How it was run: as §1

[5] = compound: NC(=O)c1cnc(N[C@@H]2CCCC[C@@H]2N)nc1Nc1cccc(-n2nccn2)c1
How it was run: as §1

[6] = compound: NC1(c2ccc(-c3nc4ccn5c(=O)[nH]nc5c4cc3-c3ccccc3)cc2)CCC1
How it was run: as §1

[7] = compound: NCC(=O)Nc1ccc(-n2nc(C(F)(F)F)cc2-c2ccc3c(ccc4ccccc43)c2)cc1
How it was run: as §1

vorinostat = compound: O=C(CCCCCCC(=O)Nc1ccccc1)NO [vorinostat]
How it was run: as §1

silmitasertib = compound: O=C(O)c1ccc2c(c1)nc(Nc1cccc(Cl)c1)c1ccncc12 [silmitasertib]
How it was run: as §1

[8] = compound: O=C1NC(=O)C(c2cnc3ccccn23)=C1c1cn2c3c(cc(F)cc13)CN(C(=O)N1CCCCC1)CC2
How it was run: as §1

entospletinib = compound: c1cn2cc(-c3ccc4cn[nH]c4c3)nc(Nc3ccc(N4CCOCC4)cc3)c2n1 [entospletinib]
How it was run: as §1

Measured: log2 fold change

SCFD2 (UniProt Q8WU76)
inactive: nilotinib 0.073 | [1] 0.07 | dasatinib -0.06 | [2] -0.009 | [3] 0.022 | quisinostat -0.055 | tipifarnib -0.063 | [4] 0.055 | [5] -0.039 | [6] -0.002 | [7] 0.012 | vorinostat -0.073 | silmitasertib 0.043 | [8] -0.018 | entospletinib -0.046

SCRN3 (UniProt Q0VDG4)
inactive: nilotinib -0.028 | [1] -0.03 | dasatinib 0.002 | [2] 0.015 | [3] -0.019 | quisinostat 0.047 | tipifarnib -0.011 | [4] 0.002 | [5] -0.027 | [6] -0.024 | [7] -0.019 | vorinostat 0.104 | silmitasertib -0.047 | [8] -0.005 | entospletinib 0.027

SEMA4C (UniProt Q9C0C4)
inactive: nilotinib -0.011 | [1] -0.021 | dasatinib 0.019 | [2] -0.041 | [3] 0.022 | quisinostat 0.069 | tipifarnib 0.003 | [4] -0.039 | [5] 0.009 | [6] 0.033 | [7] -0.009 | vorinostat 0.048 | silmitasertib -0.056 | [8] -0.071 | entospletinib -0.048

SDCBP (UniProt O00560)
inactive: nilotinib 0.039 | [1] -0.02 | dasatinib 0.029 | [2] 0.064 | [3] -0.097 | quisinostat -0.018 | tipifarnib 0.004 | [4] 0.022 | [5] -0.002 | [6] 0.001 | [7] 0.004 | vorinostat 0.093 | silmitasertib -0.044 | [8] 0.08 | entospletinib 0.028

SEPSECS (UniProt Q9HD40)
inactive: nilotinib 0.029 | [1] 0.008 | dasatinib 0.01 | [2] 0.024 | [3] 0.024 | quisinostat 0.015 | tipifarnib -0.039 | [4] -0.012 | [5] 0.012 | [6] -0.014 | [7] -0.006 | vorinostat 0.122 | silmitasertib -0.002 | [8] -0.005 | entospletinib -0.038

SCAMP4 (UniProt Q969E2)
inactive: nilotinib 0.033 | [1] -0.003 | dasatinib 0.021 | [2] -0.053 | [3] -0.057 | quisinostat 0.08 | tipifarnib -0.044 | [4] -0.037 | [5] -0.034 | [6] 0 | [7] 0.009 | vorinostat 0.103 | silmitasertib -0.07 | [8] 0.069 | entospletinib 0.034

SCARB2 (UniProt Q14108)
inactive: nilotinib 0.003 | [1] 0.026 | dasatinib 0.018 | [2] 0.007 | [3] 0.009 | quisinostat -0.014 | tipifarnib 0.008 | [4] 0.011 | [5] -0.001 | [6] -0.011 | [7] -0.006 | vorinostat 0.11 | silmitasertib -0.047 | [8] -0.059 | entospletinib -0.004

SEC13 isoform 3 (UniProt P55735)
inactive: nilotinib -0.02 | [1] 0.038 | dasatinib -0.01 | [2] 0.031 | [3] 0.02 | quisinostat 0.079 | tipifarnib -0.014 | [4] 0.006 | [5] 0.006 | [6] -0.006 | [7] -0.01 | vorinostat -0.115 | silmitasertib 0.021 | [8] -0.045 | entospletinib -0.001

SEC61G (UniProt P60059)
inactive: nilotinib -0.007 | [1] -0.061 | dasatinib 0 | [2] 0.089 | [3] -0.033 | quisinostat -0.045 | tipifarnib 0.134 | [4] -0.01 | [5] 0.023 | [6] 0.053 | [7] -0.047 | vorinostat 0.005 | silmitasertib 0.013 | [8] 0.232 | entospletinib -0.034

SCLY (UniProt Q96I15)
inactive: nilotinib -0.031 | [1] -0.004 | dasatinib 0.161 | [2] 0.012 | [3] -0.019 | quisinostat 0.04 | tipifarnib 0.033 | [4] -0.023 | [5] -0.002 | [6] -0.022 | [7] 0.005 | vorinostat 0.102 | silmitasertib -0.002 | [8] -0.013 | entospletinib 0.004

Quoted from above (4 entries):
SDCBP (UniProt O00560)
inactive: nilotinib 0.039 | [1] -0.02 | dasatinib 0.029 | [2] 0.064 | [3] -0.097 | quisinostat -0.018 | tipifarnib 0.004 | [4] 0.022 | [5] -0.002 | [6] 0.001 | [7] 0.004 | vorinostat 0.093 | silmitasertib -0.044 | [8] 0.08 | entospletinib 0.028

SEPSECS (UniProt Q9HD40)
inactive: nilotinib 0.029 | [1] 0.008 | dasatinib 0.01 | [2] 0.024 | [3] 0.024 | quisinostat 0.015 | tipifarnib -0.039 | [4] -0.012 | [5] 0.012 | [6] -0.014 | [7] -0.006 | vorinostat 0.122 | silmitasertib -0.002 | [8] -0.005 | entospletinib -0.038

SCAMP4 (UniProt Q969E2)
inactive: nilotinib 0.033 | [1] -0.003 | dasatinib 0.021 | [2] -0.053 | [3] -0.057 | quisinostat 0.08 | tipifarnib -0.044 | [4] -0.037 | [5] -0.034 | [6] 0 | [7] 0.009 | vorinostat 0.103 | silmitasertib -0.07 | [8] 0.069 | entospletinib 0.034

SCARB2 (UniProt Q14108)
inactive: nilotinib 0.003 | [1] 0.026 | dasatinib 0.018 | [2] 0.007 | [3] 0.009 | quisinostat -0.014 | tipifarnib 0.008 | [4] 0.011 | [5] -0.001 | [6] -0.011 | [7] -0.006 | vorinostat 0.11 | silmitasertib -0.047 | [8] -0.059 | entospletinib -0.004

(listing goes on)

SCAF1 (UniProt Q9H7N4)
inactive: nilotinib -0.053 | [1] 0.115 | dasatinib -0.018 | [2] -0.13 | [3] -0.042 | quisinostat -0.019 | tipifarnib -0.06 | [4] -0.028 | [5] -0.014 | [6] 0.1 | [7] -0.172 | vorinostat -0.076 | silmitasertib 0.042 | [8] -0.04 | entospletinib 0.025

SAAL1 (UniProt Q96ER3)
inactive: nilotinib -0.015 | [1] -0.01 | dasatinib -0.013 | [2] -0.013 | [3] 0.062 | quisinostat 0.041 | tipifarnib 0 | [4] 0.009 | [5] 0.005 | [6] -0.01 | [7] -0.033 | vorinostat -0.171 | silmitasertib 0.074 | [8] -0.076 | entospletinib 0.013

SART1 (UniProt O43290)
inactive: nilotinib -0.019 | [1] 0.005 | dasatinib 0.019 | [2] 0.008 | [3] -0.017 | quisinostat -0.042 | tipifarnib -0.01 | [4] -0.016 | [5] 0.001 | [6] -0.003 | [7] -0.006 | vorinostat 0.012 | silmitasertib 0.002 | [8] 0.002 | entospletinib -0.006

SAR1A (UniProt Q9NR31)
inactive: nilotinib 0.145 | [1] 0.164 | dasatinib 0.017 | [2] -0.009 | [3] 0.01 | quisinostat 0.095 | tipifarnib -0.172 | [4] -0.055 | [5] -0.154 | [6] -0.045 | [7] 0.004 | vorinostat 0.056 | silmitasertib -0.077 | [8] -0.039 | entospletinib -0.089

SEC61A2 (UniProt Q9H9S3)
inactive: nilotinib -0.012 | [1] 0.042 | dasatinib 0.009 | [2] -0.028 | [3] -0.007 | quisinostat -0.127 | tipifarnib -0.087 | [4] -0.003 | [5] 0.013 | [6] 0.06 | [7] 0 | vorinostat 0.15 | silmitasertib -0.045 | [8] -0.043 | entospletinib 0.049

SELENOH (UniProt Q8IZQ5)
inactive: nilotinib 0.004 | [1] -0.007 | dasatinib -0.03 | [2] 0.009 | [3] 0.01 | quisinostat -0.02 | tipifarnib 0.046 | [4] -0.021 | [5] 0.01 | [6] 0.035 | [7] 0.005 | vorinostat 0.083 | silmitasertib 0.023 | [8] -0.006 | entospletinib -0.033

SEPTIN8 (UniProt Q92599)
inactive: nilotinib 0.008 | [1] -0.031 | dasatinib 0 | [2] 0.004 | [3] 0.01 | quisinostat 0.036 | tipifarnib 0.025 | [4] -0.033 | [5] -0.007 | [6] 0.007 | [7] 0.013 | vorinostat 0.099 | silmitasertib 0.007 | [8] -0.043 | entospletinib 0.013

SCLT1 (UniProt Q96NL6)
inactive: nilotinib 0.016 | [1] -0.043 | dasatinib -0.035 | [2] 0.049 | [3] -0.061 | quisinostat -0.197 | tipifarnib -0.041 | [4] 0.035 | [5] -0.034 | [6] -0.063 | [7] 0.043 | vorinostat -0.093 | silmitasertib -0.029 | [8] 0.002 | entospletinib -0.071

SCARB1 isoform 2 (UniProt Q8WTV0)
inactive: nilotinib 0.043 | [1] 0.003 | dasatinib 0.003 | [2] -0.02 | [3] -0.034 | quisinostat -0.057 | tipifarnib 0.004 | [4] 0.019 | [5] -0.015 | [6] -0.034 | [7] 0.005 | vorinostat 0.114 | silmitasertib 0.003 | [8] -0.018 | entospletinib 0.005

SCAMP3 isoform 2 (UniProt O14828)
inactive: nilotinib 0.067 | [1] 0.11 | dasatinib -0.062 | [2] 0.131 | [3] 0.005 | quisinostat -0.138 | tipifarnib -0.036 | [4] 0.04 | [5] 0.003 | [6] 0.107 | [7] -0.094 | vorinostat 0.085 | silmitasertib -0.034 | [8] -0.353 | entospletinib 0.166

SDF2L1 (UniProt Q9HCN8)
inactive: nilotinib 0.007 | [1] 0.008 | dasatinib -0.009 | [2] 0.01 | [3] -0.039 | quisinostat -0.017 | tipifarnib 0.003 | [4] -0.002 | [5] -0.024 | [6] -0.005 | [7] 0.01 | vorinostat 0.094 | silmitasertib -0.023 | [8] -0.006 | entospletinib 0
